From the supplement of paper PMC10849652
Some of the results follow.

By UniProt entry, the sequences of proteins in these tests, tags left out. Where a name states a change or a piece, a line headed by the entry shows the natural chain unless it says otherwise.
UniProt P47813, whole entry, looked up: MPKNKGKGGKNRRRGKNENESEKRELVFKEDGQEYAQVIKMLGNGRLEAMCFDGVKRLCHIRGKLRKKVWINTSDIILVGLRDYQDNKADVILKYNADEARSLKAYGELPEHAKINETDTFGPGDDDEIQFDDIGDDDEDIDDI
UniProt P24534: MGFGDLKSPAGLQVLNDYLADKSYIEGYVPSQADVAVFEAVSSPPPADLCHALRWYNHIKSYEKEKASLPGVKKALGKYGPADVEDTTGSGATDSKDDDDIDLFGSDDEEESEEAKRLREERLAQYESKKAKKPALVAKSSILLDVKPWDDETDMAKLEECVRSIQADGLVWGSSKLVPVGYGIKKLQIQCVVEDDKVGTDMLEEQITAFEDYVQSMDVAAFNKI
UniProt Q04637, whole entry, looked up: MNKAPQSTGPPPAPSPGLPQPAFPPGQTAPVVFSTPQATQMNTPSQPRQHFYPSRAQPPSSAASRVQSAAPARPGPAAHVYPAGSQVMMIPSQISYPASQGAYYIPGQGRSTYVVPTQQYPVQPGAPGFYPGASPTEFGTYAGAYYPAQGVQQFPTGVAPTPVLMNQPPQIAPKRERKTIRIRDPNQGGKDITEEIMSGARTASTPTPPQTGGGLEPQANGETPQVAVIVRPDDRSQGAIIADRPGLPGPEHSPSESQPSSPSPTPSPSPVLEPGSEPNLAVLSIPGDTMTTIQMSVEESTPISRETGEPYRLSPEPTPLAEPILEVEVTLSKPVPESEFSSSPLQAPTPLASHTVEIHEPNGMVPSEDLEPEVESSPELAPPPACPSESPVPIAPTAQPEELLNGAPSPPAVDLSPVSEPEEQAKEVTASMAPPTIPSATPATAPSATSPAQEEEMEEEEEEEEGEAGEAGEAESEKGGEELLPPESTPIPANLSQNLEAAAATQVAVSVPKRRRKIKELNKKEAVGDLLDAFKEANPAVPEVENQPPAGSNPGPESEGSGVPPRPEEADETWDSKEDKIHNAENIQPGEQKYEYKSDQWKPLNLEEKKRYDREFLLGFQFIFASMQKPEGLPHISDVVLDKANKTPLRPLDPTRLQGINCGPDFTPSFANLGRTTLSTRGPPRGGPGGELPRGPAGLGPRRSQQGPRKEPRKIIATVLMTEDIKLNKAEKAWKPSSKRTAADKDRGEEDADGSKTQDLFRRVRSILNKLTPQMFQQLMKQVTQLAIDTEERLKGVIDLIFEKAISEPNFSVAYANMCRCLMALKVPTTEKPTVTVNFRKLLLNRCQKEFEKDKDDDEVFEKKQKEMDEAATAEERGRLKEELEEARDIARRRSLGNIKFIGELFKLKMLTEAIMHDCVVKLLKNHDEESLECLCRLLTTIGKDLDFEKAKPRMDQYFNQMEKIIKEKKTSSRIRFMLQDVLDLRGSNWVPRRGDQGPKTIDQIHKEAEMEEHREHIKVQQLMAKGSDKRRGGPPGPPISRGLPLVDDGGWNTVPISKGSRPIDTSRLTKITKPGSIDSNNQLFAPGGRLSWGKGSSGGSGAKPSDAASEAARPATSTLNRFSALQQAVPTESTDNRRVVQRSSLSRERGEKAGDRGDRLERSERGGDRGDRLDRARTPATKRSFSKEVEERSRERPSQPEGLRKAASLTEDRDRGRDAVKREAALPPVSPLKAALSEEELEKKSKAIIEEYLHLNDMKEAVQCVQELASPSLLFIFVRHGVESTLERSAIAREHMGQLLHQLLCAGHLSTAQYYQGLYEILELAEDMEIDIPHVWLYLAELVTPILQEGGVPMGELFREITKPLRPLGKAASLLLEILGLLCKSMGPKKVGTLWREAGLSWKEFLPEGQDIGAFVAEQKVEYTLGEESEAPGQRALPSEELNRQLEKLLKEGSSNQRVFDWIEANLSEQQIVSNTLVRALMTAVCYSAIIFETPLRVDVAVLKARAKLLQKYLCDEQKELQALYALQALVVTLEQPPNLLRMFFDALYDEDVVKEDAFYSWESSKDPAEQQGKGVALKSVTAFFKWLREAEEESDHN
UniProt Q9UHY7: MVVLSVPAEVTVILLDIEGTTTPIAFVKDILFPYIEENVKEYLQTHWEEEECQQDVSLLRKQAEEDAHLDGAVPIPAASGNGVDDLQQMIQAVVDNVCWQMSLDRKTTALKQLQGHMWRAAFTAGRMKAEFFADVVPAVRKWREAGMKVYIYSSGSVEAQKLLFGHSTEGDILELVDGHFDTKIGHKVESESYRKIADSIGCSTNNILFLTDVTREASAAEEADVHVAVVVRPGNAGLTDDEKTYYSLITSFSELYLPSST
UniProt Q32P44: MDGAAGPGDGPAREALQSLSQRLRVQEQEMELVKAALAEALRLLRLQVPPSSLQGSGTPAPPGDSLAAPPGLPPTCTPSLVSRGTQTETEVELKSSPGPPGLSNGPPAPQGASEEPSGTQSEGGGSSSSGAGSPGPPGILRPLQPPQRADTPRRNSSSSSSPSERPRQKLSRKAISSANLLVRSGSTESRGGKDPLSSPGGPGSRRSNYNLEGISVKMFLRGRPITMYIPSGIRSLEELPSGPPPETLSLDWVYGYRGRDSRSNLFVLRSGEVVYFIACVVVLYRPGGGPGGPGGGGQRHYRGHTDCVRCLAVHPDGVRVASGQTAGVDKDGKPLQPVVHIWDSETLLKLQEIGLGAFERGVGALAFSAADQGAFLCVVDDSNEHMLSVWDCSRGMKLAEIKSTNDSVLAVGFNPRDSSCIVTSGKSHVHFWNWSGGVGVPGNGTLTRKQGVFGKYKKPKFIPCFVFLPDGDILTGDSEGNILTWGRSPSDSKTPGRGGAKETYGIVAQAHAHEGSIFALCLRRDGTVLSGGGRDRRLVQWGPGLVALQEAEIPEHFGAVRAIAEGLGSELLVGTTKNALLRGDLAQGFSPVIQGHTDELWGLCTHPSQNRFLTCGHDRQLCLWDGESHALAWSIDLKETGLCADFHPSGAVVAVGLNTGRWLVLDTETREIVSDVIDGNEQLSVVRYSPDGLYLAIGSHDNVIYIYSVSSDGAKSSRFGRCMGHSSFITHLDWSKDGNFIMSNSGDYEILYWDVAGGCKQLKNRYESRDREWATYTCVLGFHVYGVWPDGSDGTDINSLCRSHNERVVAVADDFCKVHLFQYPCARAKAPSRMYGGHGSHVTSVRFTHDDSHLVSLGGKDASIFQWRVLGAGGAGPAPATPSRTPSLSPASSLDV
UniProt Q9BW60: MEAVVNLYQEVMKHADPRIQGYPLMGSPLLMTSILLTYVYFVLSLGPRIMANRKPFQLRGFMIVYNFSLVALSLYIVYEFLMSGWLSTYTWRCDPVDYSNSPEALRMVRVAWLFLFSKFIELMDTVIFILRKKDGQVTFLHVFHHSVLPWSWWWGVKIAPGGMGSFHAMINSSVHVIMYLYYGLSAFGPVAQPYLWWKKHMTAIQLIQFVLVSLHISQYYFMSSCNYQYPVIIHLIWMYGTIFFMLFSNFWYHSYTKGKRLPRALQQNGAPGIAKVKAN
UniProt Q9UI10, whole entry, looked up: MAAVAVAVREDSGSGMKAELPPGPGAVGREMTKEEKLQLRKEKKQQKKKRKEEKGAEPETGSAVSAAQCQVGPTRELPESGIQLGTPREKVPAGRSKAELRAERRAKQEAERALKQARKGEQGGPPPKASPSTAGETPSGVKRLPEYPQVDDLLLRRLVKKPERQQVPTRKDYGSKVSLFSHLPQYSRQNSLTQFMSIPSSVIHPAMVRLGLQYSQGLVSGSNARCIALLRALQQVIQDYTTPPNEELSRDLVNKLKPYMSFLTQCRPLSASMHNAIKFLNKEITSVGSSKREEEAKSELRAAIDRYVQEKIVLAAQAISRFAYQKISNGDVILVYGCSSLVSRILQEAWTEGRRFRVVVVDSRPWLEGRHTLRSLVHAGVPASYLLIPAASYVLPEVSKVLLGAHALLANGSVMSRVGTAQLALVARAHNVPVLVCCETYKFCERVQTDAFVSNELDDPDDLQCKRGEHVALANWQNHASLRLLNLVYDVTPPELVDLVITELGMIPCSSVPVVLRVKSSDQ
UniProt Q9H4M9: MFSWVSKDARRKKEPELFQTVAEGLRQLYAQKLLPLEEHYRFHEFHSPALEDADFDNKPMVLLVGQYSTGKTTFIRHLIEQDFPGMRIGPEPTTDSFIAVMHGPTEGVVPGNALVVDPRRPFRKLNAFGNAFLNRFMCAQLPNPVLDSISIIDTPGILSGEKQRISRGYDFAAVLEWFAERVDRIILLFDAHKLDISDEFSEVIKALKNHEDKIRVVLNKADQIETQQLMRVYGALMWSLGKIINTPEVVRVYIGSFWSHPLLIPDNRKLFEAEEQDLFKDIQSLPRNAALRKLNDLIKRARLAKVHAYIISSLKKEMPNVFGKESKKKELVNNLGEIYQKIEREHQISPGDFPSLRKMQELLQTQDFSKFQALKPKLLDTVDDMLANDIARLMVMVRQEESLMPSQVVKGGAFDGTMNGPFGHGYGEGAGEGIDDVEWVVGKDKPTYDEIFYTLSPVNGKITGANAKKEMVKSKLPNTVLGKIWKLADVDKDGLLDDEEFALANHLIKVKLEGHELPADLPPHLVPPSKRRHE
UniProt Q9NR50: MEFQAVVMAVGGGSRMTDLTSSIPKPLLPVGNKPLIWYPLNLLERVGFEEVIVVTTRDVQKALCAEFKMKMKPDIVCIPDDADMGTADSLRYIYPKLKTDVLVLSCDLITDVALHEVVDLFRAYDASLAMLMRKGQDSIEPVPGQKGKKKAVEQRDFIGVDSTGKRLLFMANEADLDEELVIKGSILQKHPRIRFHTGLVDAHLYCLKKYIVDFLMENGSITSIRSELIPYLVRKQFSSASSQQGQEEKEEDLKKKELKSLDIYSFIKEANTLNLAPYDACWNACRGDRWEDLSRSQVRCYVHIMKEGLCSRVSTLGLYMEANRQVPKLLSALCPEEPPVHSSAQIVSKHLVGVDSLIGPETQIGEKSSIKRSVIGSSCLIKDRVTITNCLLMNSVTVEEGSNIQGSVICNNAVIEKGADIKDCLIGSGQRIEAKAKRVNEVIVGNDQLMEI
UniProt Q08426: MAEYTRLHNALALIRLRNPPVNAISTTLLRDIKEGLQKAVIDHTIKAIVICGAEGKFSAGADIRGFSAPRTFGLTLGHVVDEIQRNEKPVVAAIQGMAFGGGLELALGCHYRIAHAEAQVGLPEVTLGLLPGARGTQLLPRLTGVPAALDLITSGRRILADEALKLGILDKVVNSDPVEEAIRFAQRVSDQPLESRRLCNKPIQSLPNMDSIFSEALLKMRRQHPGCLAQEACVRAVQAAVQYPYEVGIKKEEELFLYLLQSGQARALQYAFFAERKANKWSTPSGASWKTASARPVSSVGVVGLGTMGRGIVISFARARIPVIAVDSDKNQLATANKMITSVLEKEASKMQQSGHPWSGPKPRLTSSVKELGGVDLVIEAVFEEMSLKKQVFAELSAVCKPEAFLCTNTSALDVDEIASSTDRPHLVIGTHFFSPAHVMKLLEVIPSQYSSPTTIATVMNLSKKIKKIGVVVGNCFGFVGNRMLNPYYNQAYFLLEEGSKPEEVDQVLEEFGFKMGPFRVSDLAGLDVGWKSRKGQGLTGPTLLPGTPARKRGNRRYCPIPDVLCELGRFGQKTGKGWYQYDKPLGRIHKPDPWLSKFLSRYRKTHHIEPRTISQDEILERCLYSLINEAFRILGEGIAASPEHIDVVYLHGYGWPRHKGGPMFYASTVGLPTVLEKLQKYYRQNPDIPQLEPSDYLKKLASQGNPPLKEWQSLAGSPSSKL
UniProt Q5VTE0, whole entry, looked up: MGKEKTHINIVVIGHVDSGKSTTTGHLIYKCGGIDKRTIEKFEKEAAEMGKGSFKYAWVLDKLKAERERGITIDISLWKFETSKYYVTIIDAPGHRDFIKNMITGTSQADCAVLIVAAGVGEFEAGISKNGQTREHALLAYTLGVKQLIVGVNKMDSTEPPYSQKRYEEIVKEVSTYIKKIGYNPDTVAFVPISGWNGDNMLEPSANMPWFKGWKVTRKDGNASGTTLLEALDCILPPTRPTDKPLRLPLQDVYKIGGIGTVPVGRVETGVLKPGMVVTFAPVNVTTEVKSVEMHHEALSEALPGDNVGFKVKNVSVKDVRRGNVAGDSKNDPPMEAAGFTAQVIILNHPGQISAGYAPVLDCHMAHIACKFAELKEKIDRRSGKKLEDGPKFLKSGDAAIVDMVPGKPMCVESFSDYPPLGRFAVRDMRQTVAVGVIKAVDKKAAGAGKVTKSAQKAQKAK
UniProt Q9GZT9: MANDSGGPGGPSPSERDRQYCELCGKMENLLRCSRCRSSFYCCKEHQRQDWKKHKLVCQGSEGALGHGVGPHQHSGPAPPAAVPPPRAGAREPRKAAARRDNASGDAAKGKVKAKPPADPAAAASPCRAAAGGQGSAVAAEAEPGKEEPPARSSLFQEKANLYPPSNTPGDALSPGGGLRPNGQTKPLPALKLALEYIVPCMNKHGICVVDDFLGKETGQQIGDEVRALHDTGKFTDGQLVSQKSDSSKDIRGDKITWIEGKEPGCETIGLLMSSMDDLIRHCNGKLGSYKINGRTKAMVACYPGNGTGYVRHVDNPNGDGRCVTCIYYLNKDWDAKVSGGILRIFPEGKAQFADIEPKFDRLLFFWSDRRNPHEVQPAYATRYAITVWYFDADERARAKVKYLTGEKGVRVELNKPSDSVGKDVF

What was measured:
Assay in all cases: log2 fold change, soluble protein after heating vs DMSO (PISA); higher = thermal stabilisation; K562 cells, 10 uM, 30 min; active = over 0.2 and 3.5 SD of the protein, either way, in both replicates (recomputed)
[1] = compound: Cc1ccc(NC(=O)c2ccc(CN3CC[C@H](N(C)C)C3)c(C(F)(F)F)c2)cc1Nc1nccc(-c2cncnc2)n1 [bafetinib]
Summary of the method: (§1)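 K562 cells at 2×10^6 cells/mL were treated with 10 μM compound for 30 min. Aliquots were heated for 3 min across 48°C-58°C, pooled, and extracted in PBS with 0.5% NP-40 at 4°C; soluble protein was the supernatant after 21,000xg for 90 min. Soluble protein was quantified by TMTpro 16plex LC-MS/MS with channel sums equalised, and reported as log2 fold change in thermal stability against DMSO controls, with values from duplicates.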

[2] = compound: Cc1cccc(CC(=O)N2CCc3c2ccc(-c2cn(C)c4ncnc(N)c24)c3F)n1
Summary of the method: as §1

[3] = compound: Cc1cn(-c2cc(NC(=O)c3ccc(C)c(Nc4nccc(-c5cccnc5)n4)c3)cc(C(F)(F)F)c2)cn1 [nilotinib]
Summary of the method: as §1

[4] = compound: Cc1nc(Nc2n[nH]c3c2CN(C(=O)N[C@H](CN(C)C)c2ccccc2)C3(C)C)c2sccc2n1
Summary of the method: as §1

[5] = compound: Cc1nc(Nc2ncc(C(=O)Nc3c(C)cccc3Cl)s2)cc(N2CCN(CCO)CC2)n1 [dasatinib]
Summary of the method: as §1

[6] = compound: Cc1ncc(-c2ccnc(Nc3ccc(S(C)(=O)=O)cc3)n2)n1C(C)C
Summary of the method: as §1

[7] = compound: Cn1cc(-c2ccc3c(c2)CCN3C(=O)Cc2cccc(C(F)(F)F)c2)c2c(N)ncnc21
Summary of the method: as §1

[8] = compound: Cn1cc(-c2ccc3nnc(C(F)(F)c4ccc5ncccc5c4)n3n2)cn1
Summary of the method: as §1

[9] = compound: Cn1cncc1[C@@](N)(c1ccc(Cl)cc1)c1ccc2c(c1)c(-c1cccc(Cl)c1)cc(=O)n2C [tipifarnib]
Summary of the method: as §1

[10] = compound: FC(F)(F)c1ccc(/C=C/c2nc(COc3ccc(CCCCn4ccnn4)cc3)co2)cc1 [mubritinib]
Summary of the method: as §1

Measured: log2 fold change

EI24 (UniProt O14681)
inactive: [1] -0.102 | [2] 0.031 | [3] -0.118 | [4] -0.067 | [5] -0.039 | [6] 0.018 | [7] 0.08 | [8] 0.021 | [9] -0.031 | [10] 0.019

EIF1AX (UniProt P47813)
inactive: [1] 0.05 | [2] 0.038 | [3] 0.029 | [4] 0.052 | [5] -0.028 | [6] 0.024 | [7] -0.003 | [8] -0.012 | [9] -0.098 | [10] 0.032

EEF1B2 (UniProt P24534)
inactive: [1] 0.006 | [2] 0.025 | [3] -0.042 | [4] -0.03 | [5] 0.026 | [6] 0.043 | [7] -0.057 | [8] -0.054 | [9] -0.109 | [10] 0.058

EEF1AKNMT (UniProt Q8N6R0)
inactive: [1] 0.067 | [2] -0.008 | [3] -0.02 | [4] -0.062 | [5] -0.118 | [6] 0.084 | [7] -0.031 | [8] 0.003 | [9] -0.154 | [10] 0.089

EIF4G1 isoform 8 (UniProt Q04637)
inactive: [1] -0.002 | [2] 0.046 | [3] -0.223 | [4] -0.11 | [5] -0.157 | [6] -0.17 | [7] -0.155 | [8] -0.117 | [9] -0.083 | [10] -0.071

ENOPH1 (UniProt Q9UHY7)
inactive: [1] 0.121 | [2] 0.141 | [3] -0.044 | [4] 0.02 | [5] -0.082 | [6] 0.048 | [7] 0.114 | [8] 0.104 | [9] -0.194 | [10] 0.273

ELOB (UniProt Q15370)
inactive: [1] -0.046 | [2] -0.003 | [3] -0.003 | [4] -0.016 | [5] 0.032 | [6] -0.006 | [7] 0.052 | [8] 0.119 | [9] -0.03 | [10] 0.025

EIF4EBP1 (UniProt Q13541)
inactive: [1] -0.027 | [2] -0.067 | [3] 0.084 | [4] -0.026 | [5] 0.061 | [6] 0.002 | [7] 0.051 | [8] 0.165 | [9] -0.18 | [10] -0.005

EML3 isoform 2 (UniProt Q32P44)
inactive: [1] 0.071 | [2] 0.039 | [3] -0.09 | [4] -0.069 | [5] 0.054 | [6] -0.042 | [7] -0.021 | [8] -0.129 | [9] 0.055 | [10] 0.001

ELOVL1 (UniProt Q9BW60)
inactive: [1] -0.245 | [2] 0.12 | [3] -0.126 | [4] 0.024 | [5] -0.041 | [6] -0.011 | [7] 0.139 | [8] -0.097 | [9] -0.093 | [10] 0.011

EIF3H (UniProt O15372)
inactive: [1] -0.024 | [2] 0.033 | [3] -0.044 | [4] -0.087 | [5] -0.022 | [6] 0.006 | [7] -0.054 | [8] 0 | [9] -0.047 | [10] 0.017

EIF2B4 isoform 2 (UniProt Q9UI10)
inactive: [1] 0.082 | [2] -0.012 | [3] -0.026 | [4] -0.03 | [5] -0.023 | [6] 0.015 | [7] -0.065 | [8] -0.058 | [9] -0.011 | [10] 0.008

EML3 (UniProt Q32P44)
inactive: [1] 0.102 | [2] 0.087 | [3] -0.003 | [4] -0.023 | [5] 0.148 | [6] 0.049 | [7] -0.076 | [8] -0.361 | [9] -0.004 | [10] 0.021

EED, A0A5F9ZI63
inactive: [1] 0.019 | [2] -0.024 | [3] -0.027 | [4] 0.043 | [5] 0.015 | [6] -0.025 | [7] -0.076 | [8] -0.029 | [9] -0.014 | [10] -0.066

EMC3 (UniProt Q9P0I2)
inactive: [1] 0.018 | [2] 0.087 | [3] -0.001 | [4] -0.005 | [5] -0.08 | [6] -0.023 | [7] 0.054 | [8] -0.056 | [9] -0.013 | [10] 0.029

ELP6 (UniProt Q0PNE2)
inactive: [1] -0.008 | [2] 0.002 | [3] 0.003 | [4] 0.003 | [5] -0.037 | [6] 0.003 | [7] 0 | [8] 0.007 | [9] -0.078 | [10] 0.029

EHD1 (UniProt Q9H4M9)
inactive: [1] -0.063 | [2] 0.021 | [3] -0.068 | [4] -0.008 | [5] -0.072 | [6] 0.013 | [7] 0.035 | [8] -0.002 | [9] -0.032 | [10] -0.02

EMC2 (UniProt Q15006)
inactive: [1] 0.011 | [2] 0.046 | [3] -0.003 | [4] 0.003 | [5] -0.08 | [6] -0.022 | [7] 0.058 | [8] -0.025 | [9] -0.037 | [10] 0.07

EMC6 (UniProt Q9BV81)
inactive: [1] 0.084 | [2] 0.177 | [3] -0.01 | [4] -0.001 | [5] -0.059 | [6] -0.033 | [7] 0.198 | [8] 0.063 | [9] -0.04 | [10] -0.024

Retrieved one by one from the list above, two records:
EHD1 (UniProt Q9H4M9)
inactive: [1] -0.063 | [2] 0.021 | [3] -0.068 | [4] -0.008 | [5] -0.072 | [6] 0.013 | [7] 0.035 | [8] -0.002 | [9] -0.032 | [10] -0.02

EMC2 (UniProt Q15006)
inactive: [1] 0.011 | [2] 0.046 | [3] -0.003 | [4] 0.003 | [5] -0.08 | [6] -0.022 | [7] 0.058 | [8] -0.025 | [9] -0.037 | [10] 0.07

The list continues:

EIF2B3 (UniProt Q9NR50)
inactive: [1] 0.021 | [2] -0.026 | [3] -0.043 | [4] -0.058 | [5] -0.012 | [6] -0.022 | [7] -0.116 | [8] -0.027 | [9] -0.021 | [10] -0.011

ENO2 (UniProt P09104)
inactive: [1] -0.002 | [2] 0.016 | [3] 0.016 | [4] 0.021 | [5] 0.006 | [6] 0.015 | [7] -0.015 | [8] -0.034 | [9] -0.023 | [10] 0.015

EEF1G isoform 2 (UniProt P26641)
inactive: [1] 0.033 | [2] 0.083 | [3] -0.034 | [4] -0.03 | [5] -0.032 | [6] 0.045 | [7] -0.03 | [8] -0.05 | [9] -0.124 | [10] 0.028

EHHADH (UniProt Q08426)
inactive: [1] 0.019 | [2] 0.047 | [3] -0.081 | [4] -0.046 | [5] -0.012 | [6] 0.01 | [7] 0.056 | [8] -0.012 | [9] 0.044 | [10] 0.074

ENDOD1 (UniProt O94919)
inactive: [1] -0.066 | [2] -0.096 | [3] -0.034 | [4] -0.019 | [5] 0.041 | [6] 0.016 | [7] -0.04 | [8] 0.053 | [9] 0.043 | [10] 0.036

EEF1A1P5 (UniProt Q5VTE0)
inactive: [1] 0.005 | [2] 0.001 | [3] -0.076 | [4] 0.025 | [5] -0.006 | [6] -0.017 | [7] 0.045 | [8] 0.019 | [9] -0.019 | [10] 0.016

EGLN1 (UniProt Q9GZT9)
inactive: [1] -0.031 | [2] -0.018 | [3] 0.066 | [4] -0.026 | [5] -0.073 | [6] -0.036 | [7] -0.01 | [8] 0.017 | [9] 0.016 | [10] -0.116

EHD4 (UniProt Q9H223)
inactive: [1] -0.075 | [2] 0.004 | [3] -0.096 | [4] -0.014 | [5] -0.065 | [6] -0.012 | [7] -0.011 | [8] -0.011 | [9] -0.079 | [10] -0.017

EIF2B2 (UniProt P49770)
inactive: [1] 0.037 | [2] 0.036 | [3] 0.045 | [4] -0.003 | [5] 0.038 | [6] -0.001 | [7] -0.086 | [8] -0.055 | [9] -0.04 | [10] -0.005

ELAVL1 isoform 2 (UniProt Q15717)
inactive: [1] 0.033 | [2] -0.051 | [3] -0.099 | [4] -0.1 | [5] 0.111 | [6] 0.257 | [7] -0.268 | [8] -0.228 | [9] 0.008 | [10] -0.253
